No constants are given. Whether binding was seen depends on the method and setting. Some results given as binding are weak or reduced against the parent protein; the word gives no strength. Sequences can lack the tags named with a protein.
Target: T1, FIP37, yeast two-hybrid fusion (Arabidopsis thaliana) (UniProt Q9ZSZ8)
T1 sequence: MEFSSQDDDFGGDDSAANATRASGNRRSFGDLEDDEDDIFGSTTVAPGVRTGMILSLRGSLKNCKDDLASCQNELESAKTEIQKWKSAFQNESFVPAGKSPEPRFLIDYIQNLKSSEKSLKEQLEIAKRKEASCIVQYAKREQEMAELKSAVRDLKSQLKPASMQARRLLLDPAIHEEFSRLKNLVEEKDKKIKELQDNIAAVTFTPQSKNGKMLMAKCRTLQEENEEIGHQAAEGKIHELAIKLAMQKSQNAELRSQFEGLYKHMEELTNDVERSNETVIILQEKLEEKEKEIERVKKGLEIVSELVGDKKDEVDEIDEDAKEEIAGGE
Test: two-hybrid; yeast two-hybrid, fusions to activation domain (pDEST22) and binding domain (pDEST32); growth on media lacking histidine with 3-AT (-LTH) or lacking adenine (-LTA), recorded after 4 d; three technical and three biological replicates

Amino acid sequences for entries named in this document (tags omitted).
UniProt O82486: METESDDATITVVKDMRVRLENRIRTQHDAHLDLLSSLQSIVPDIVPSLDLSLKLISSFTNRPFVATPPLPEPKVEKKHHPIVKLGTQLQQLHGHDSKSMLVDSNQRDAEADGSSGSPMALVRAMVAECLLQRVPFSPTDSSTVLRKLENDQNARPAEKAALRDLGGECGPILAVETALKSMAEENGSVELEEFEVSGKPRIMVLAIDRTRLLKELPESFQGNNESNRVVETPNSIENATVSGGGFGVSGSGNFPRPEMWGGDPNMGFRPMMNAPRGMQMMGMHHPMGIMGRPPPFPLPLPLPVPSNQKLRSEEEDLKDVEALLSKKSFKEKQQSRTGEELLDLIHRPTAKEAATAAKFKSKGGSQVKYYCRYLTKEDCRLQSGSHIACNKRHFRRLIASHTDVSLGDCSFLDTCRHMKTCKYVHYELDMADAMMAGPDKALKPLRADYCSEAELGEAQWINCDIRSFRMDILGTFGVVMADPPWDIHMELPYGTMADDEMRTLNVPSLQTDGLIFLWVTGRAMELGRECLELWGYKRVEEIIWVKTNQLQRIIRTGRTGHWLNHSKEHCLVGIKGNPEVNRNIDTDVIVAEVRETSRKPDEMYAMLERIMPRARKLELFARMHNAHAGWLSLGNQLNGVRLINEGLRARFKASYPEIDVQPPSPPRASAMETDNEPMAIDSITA

Molecule: MTA, yeast two-hybrid fusion (from UniProt O82486 1-685)
- binding: binds

B1: FIP37, yeast two-hybrid fusion (protein, UniProt Q9ZSZ8 1-330)
chain: T1 sequence
- binding: binds

Source: publication PMC5488176
